# Construct, isoform or probe ends are uncertain for at least one entry. A negative result means that nothing was seen under these conditions. Protein sequences can lack the tags named with them.
# Biological target: T1, His6-SAV577 (UniProt Q82QD3)
# T1 sequence (looked up, limits assumed): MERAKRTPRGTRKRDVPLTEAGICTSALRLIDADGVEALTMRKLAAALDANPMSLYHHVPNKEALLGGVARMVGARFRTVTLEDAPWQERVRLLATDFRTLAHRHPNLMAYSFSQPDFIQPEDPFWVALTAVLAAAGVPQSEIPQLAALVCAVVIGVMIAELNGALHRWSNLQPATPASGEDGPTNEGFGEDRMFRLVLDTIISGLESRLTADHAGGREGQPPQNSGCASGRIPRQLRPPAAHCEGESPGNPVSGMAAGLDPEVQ
# Assay: EMSA
# Conditions: 0.3 nM probe; EMSA: Roche DIG Gel Shift kit binding buffer, 1 ug poly[d(I-C)] per 20 ul, 25 C 30 min, 5% native PAGE 0.5x TBE; recombinant protein; protein details: N-terminal His6; label: DIG 3'-end; probe letters rebuilt from the primers and the genome
sequence,measurement,value
AGGACGGTGGCATCGTTTTCAGCCCCTCGTTCCTCCGGTTTCGCGGAAGCGGGCTGTGTGCTGGTGGGCGGCGTAACTGGCGACGGGCAGTCCCGAACTGGTGGCCTTGATGGCCGACGAGGTCGTCAAGGCATGCCTCGGCCAGGAAAAGGCTCAGGCGGGAAGCTGCGCTCGAGGGGTGCAGCAAGGCGCTCGAGCGGCGGCTTCAGCGCACTGCCGCCTGACGTGTGCGGGCGTAGGACCGGGCGAGGCGTGTCGACCGCTCCCACTCCCGGTGTGCTCGCCCGCGGCGGCGGATCGCAGATATGCCCTGCCGAGGAGACCCTGGCGAAC (double strand) [probe 5],binding result,no binding
